Laboratory results: PubChem BioAssay AID1259425 (University of Nebraska Medical Center, 2018)
The whole screen tested about 14,000 reagents; shown is a random part of them. A reagent listed more than once was tested more than once; the source does not tell the runs apart. Not all columns of the deposit are shown. The record does not give: the time to read-out.

Screen: 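Find knockdowns that reproduce the gene expression pattern seen when KSR1 is lost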 (primary screen)
System: HCT116 human colon cancer cells
Reagent: siRNA pool against human genes, 50 nM siRNA
Detection: 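After 50 nM siRNA pool, branched-DNA assay measures six marker transcripts per well, minus blank, normalised to the geometric mean of two housekeeping transcripts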
Scale: BNIP3L mRNA: higher = more BNIP3L transcript after knockdown

target gene | BNIP3L mRNA, set 1
CHRNA2 (GeneID 1135) | 0.102
LOC81787 (retired record) (GeneID 81787) | 0.256
CALD1 (GeneID 800) | 0.0869
KLF4 (GeneID 9314) | 0.11
CRYZ (GeneID 1429) | 0.159
ZNF544 (GeneID 27300) | 0.25
NANS (GeneID 54187) | 0.237
PAWR (GeneID 5074) | 0.124
ARPC5 (GeneID 10092) | 0.272
DAO (GeneID 1610) | 0.179
ADRB2 (GeneID 154) | 0.175
ADRB2 (GeneID 154) | 0.161
CCDC142 (GeneID 84865) | 0.135
CDK2 (GeneID 1017) | 0.19
LUM (GeneID 4060) | 0.19
CLN3 (GeneID 1201) | 0.128
CAMK4 (GeneID 814) | 0.0891
CLK4 (GeneID 57396) | 0.13
AMBP (GeneID 259) | 0.0328
RBMXL2 (GeneID 27288) | 0.135
TBXAS1 (GeneID 6916) | 0.0801
SNTB2 (GeneID 6645) | 0.125
GATM (GeneID 2628) | 0.111
HTR1D (GeneID 3352) | 0.138
SMC4 (GeneID 10051) | 0.116
CSH1 (GeneID 1442) | 0.089
AQP6 (GeneID 363) | 0.114
GMPS (GeneID 8833) | 0.209
FOXS1 (GeneID 2307) | 0.136
UST (GeneID 10090) | 0.085
TSSK1B (GeneID 83942) | 0.0932
CHD9 (GeneID 80205) | 0.044
TTTY5 (GeneID 83863) | 0.338
SLC25A44 (GeneID 9673) | 0.136
ZNF160 (GeneID 90338) | 0.162
C11orf58 (GeneID 10944) | 0.224
SLC26A10P (GeneID 65012) | 0.165
RNF44 (GeneID 22838) | 0.0428
ARHGEF7 (GeneID 8874) | 0.0697
DIPK2B (GeneID 79742) | 0.176
SLC25A6 (GeneID 293) | 0.304
HEXA (GeneID 3073) | 0.145
TTBK1 (GeneID 84630) | 0.246
ARHGEF6 (GeneID 9459) | 0.0768
MECP2 (GeneID 4204) | 0.0364
MED6 (GeneID 10001) | 0.169
ELOA (GeneID 6924) | 0.101
ACSL4 (GeneID 2182) | 0.0777
INCENP (GeneID 3619) | 0.085
DAB1 (GeneID 1600) | 0.103
DRC8 (GeneID 84288) | 0.129
CPZ (GeneID 8532) | 0.117
MIF4GD (GeneID 57409) | 0.173
BPNT2 (GeneID 54928) | 0.0483
TSPOAP1 (GeneID 9256) | 0.0847
GIPC1 (GeneID 10755) | 0.152
GSTA4 (GeneID 2941) | 0.111
PLCD4 (GeneID 84812) | 0.179
SUCO (GeneID 51430) | 0.119
HACL2 (GeneID 10994) | 0.202
MGC13053 (retired record) (GeneID 84796) | 0.0885
SMCO4 (GeneID 56935) | 0.167
ZNF624 (GeneID 57547) | 0.119

Records above whose target name begins with H or h:
target gene | BNIP3L mRNA, set 1
HTR1D (GeneID 3352) | 0.138
HEXA (GeneID 3073) | 0.145
HACL2 (GeneID 10994) | 0.202
